Data on two molecules can be found in publication PMC5584137.

Results are given in words; binding and its absence hold for the method and conditions named. A result given as binding can be weak or reduced; the word gives no strength. For some assays here: In cells and extracts the contact can be indirect. For some assays here: Sequences can lack the tags named with a protein.

One test deals with myc-KIF17-T^ΔNR (human). The test is described as follows: co-IP; lysates of transfected HEK293 cells one day after transfection; 50 mM HEPES pH 7.4, 150 mM NaCl, 1% Triton-X100 lysis buffer; overnight with anti-myc or anti-GFP antibody, Protein-G sepharose; immunoblot. Background: Immunoblotting shows a protein as a band on a membrane.
For test [1], the target named is KIF17 C-terminal tail domain, yeast-2-hybrid bait (human). The test is described as follows: two-hybrid; yeast-2-hybrid screen of a library from normal colon epithelial cells (25 μg) with the C-terminal tail domain of KIF17 as bait; iterative rounds of screening.

B1: full-length GFP-ERR1 (protein, UniProt P11474 1-423)
chain: MSSQVVGIEPLYIKAEPASPDSPKGSSETETEPPVALAPGPAPTRCLPGHKEEEDGEGAGPGEQGGGKLVLSSLPKRLCLVCGDVASGYHYGVASCEACKAFFKRTIQGSIEYSCPASNECEITKRRRKACQACRFTKCLRVGMLKEGVRLDRVRGGRQKYKRRPEVDPLPFPGPFPAGPLAVAGGPRKTAAPVNALVSHLLVVEPEKLYAMPDPAGPDGHLPAVATLCDLFDREIVVTISWAKSIPGFSSLSLSDQMSVLQSVWMEVLVLGVAQRSLPLQDELAFAEDLVLDEEGARAAGLGELGAALLQLVRRLQALRLEREEYVLLKALALANSDSVHIEDAEAVEQLREALHEALLEYEAGRAGPGGGAERRRAGRLLLTLPLLRQTAGKVLAHFYGVKLEGKVPMHKLFLEMLEAMMD
B1: the binding result with myc-KIF17-T^ΔNR (human) is “binds”.

B2: ERR1 ligand-binding and activator function-2 domains (LB/AF2), yeast-2-hybrid prey clones (domain or fragment, UniProt P11474 254-423)
chain: LSDQMSVLQSVWMEVLVLGVAQRSLPLQDELAFAEDLVLDEEGARAAGLGELGAALLQLVRRLQALRLEREEYVLLKALALANSDSVHIEDAEAVEQLREALHEALLEYEAGRAGPGGGAERRRAGRLLLTLPLLRQTAGKVLAHFYGVKLEGKVPMHKLFLEMLEAMMD
For B2, in test [1], the binding entry is on record as “binds”.
